1 compound from patent publication US11976080B1, “Benzofuro[3,2-c]chromen-6-one compounds as antibacterial agents” (King Faisal University, priority 2023, dated 2024) can be followed below.

Converted amounts (≈) assume the structure as drawn. Where only a bound is given, the exact number is not on record here.

Holding throughout (assay): In vitro antibacterial activity (CLSI dilution MIC)
Assay type in all cases: cell-based

Assay [1] deals with Staphylococcus aureus ATCC BAA-1556 (MERSA resistant). The following applies: ATCCBAA1556.
The subject of assay [2] is Enterococcus faecium ATCC 35667. The note with it: ATCC35667.
For assay [3], the system named is Staphylococcus aureus ATCC 29213. The note with it: ATCC29213.
In assay [4] the test system is Enterococcus faecium ATCC 51559 (VRE resistant).
For assay [5], the system named is Escherichia coli MTCC 443. The note with it: MTCC443.
Assay [6] concerns Staphylococcus epidermidis.

What is called MIC is the smallest concentration in the dilution series that meets the test's criterion for growth inhibition. Higher therefore signals a less susceptible organism. Turning to `CN[C@H](CC(C)C)C(=O)N[C@H]1C(=O)N[C@@H](CC(N)=O)C(=O)N[C@H]2C(=O)N[C@H]3C(=O)N[C@H](C(=O)N[C@H](C(=O)O)c4cc(O)cc(O)c4-c4cc3ccc4O)[C@H](O)c3ccc(c(Cl)c3)Oc3cc2cc(c3O[C@@H]2O[C@H](CO)[C@@H](O)[C@H](O)[C@H]2O[C@H]2C[C@](C)(N)[C@H](O)[C@H](C)O2)Oc2ccc(cc2Cl)[C@H]1O` [Vancomycin, reference compound], the MIC in assay [1] was 1 µg/mL (≈ 0.69 µM); in assay [2], 0.5 µg/mL (≈ 0.345 µM); in assay [3], 1 µg/mL (≈ 0.69 µM); in assay [4], more than 128 µg/mL; in assay [5], more than 128 µg/mL; in assay [6], 1 µg/mL (≈ 0.69 µM).
